No constants are given. Whether binding was seen depends on the method and setting. Binding seen in cells or lysates may run through a third protein. A result given as binding can be weak or reduced; the word gives no strength.
Molecular target: Cathepsin L, endogenous in human monocyte-derived M2 macrophages (human (endogenous in monocyte-derived macrophages)) (UniProt P07711)
Assay: proximity ligation; Duolink PLA in situ in activated M1 and M2 macrophages, treated or not with Tg, pretreated or not with PU-WS13 or DMSO; pairs of primary antibodies (anti-C3d + anti-GRP94; anti-GRP94 + anti-TLR4; anti-GRP94 + anti-cathepsin L); spots per cell counted

By UniProt entry, the sequences of proteins in these tests, tags left out. Where a name states a change or a piece, a line headed by the entry shows the natural chain unless it says otherwise. Residues count along the entry.
UniProt P07711: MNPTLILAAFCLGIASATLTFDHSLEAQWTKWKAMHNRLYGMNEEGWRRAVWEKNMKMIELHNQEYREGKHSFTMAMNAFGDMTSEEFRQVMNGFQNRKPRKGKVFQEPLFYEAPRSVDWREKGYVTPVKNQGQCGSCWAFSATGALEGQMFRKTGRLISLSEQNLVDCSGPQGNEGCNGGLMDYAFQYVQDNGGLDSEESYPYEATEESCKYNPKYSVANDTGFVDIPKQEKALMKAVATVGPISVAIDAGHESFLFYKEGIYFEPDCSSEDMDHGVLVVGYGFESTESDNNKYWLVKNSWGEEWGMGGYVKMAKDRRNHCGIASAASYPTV
UniProt P14625, residues 22-803: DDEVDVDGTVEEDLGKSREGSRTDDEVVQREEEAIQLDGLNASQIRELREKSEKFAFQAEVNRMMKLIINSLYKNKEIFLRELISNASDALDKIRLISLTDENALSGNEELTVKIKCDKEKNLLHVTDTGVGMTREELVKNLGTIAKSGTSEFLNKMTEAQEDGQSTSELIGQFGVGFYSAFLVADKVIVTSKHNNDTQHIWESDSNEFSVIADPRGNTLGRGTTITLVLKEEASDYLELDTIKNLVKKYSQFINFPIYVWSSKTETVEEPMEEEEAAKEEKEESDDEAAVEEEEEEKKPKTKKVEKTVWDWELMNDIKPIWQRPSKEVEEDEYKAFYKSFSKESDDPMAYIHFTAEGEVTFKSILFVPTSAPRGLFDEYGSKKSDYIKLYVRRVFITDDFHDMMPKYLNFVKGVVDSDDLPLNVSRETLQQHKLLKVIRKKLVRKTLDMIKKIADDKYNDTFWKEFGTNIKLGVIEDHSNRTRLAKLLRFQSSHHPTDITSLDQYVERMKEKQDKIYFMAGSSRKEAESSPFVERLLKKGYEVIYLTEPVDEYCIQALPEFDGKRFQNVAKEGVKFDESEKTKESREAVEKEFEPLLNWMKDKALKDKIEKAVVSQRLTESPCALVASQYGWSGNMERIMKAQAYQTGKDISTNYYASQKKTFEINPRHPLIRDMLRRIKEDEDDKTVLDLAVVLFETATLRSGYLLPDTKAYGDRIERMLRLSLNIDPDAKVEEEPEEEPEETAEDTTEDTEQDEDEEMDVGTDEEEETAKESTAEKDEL

Glucose-regulated protein 94 (GRP94), endogenous in human monocyte-derived macrophages (from UniProt P14625 22-803)
binding: binds

Reference: publication PMC7822929
